Results: PubChem BioAssay AID1347426 (Functional Genomics Laboratory (NCATS/FGL), 2020)
In all, about 31,000 sequences went through this assay and about 1,400 (4.5%) were called active.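 The calls were made as follows: active = median seed-adjusted z-score above 1 or below -1; inactive = the rest.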 The list shows a part of the results.

test: Novel Modifiers of Survival Motor Neuron (SMN) Protein: Gene Identification via Genome-wide siRNA Screen; settings: HEK293T SMN2-luciferase reporter, siRNA knockdown, 72 h; actives lie on both sides;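 also: luminescence tracks full-length SMN protein made from the SMN2 reporter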
Summary of the method: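 Steps: spot 1 pmol siRNA, add Lipofectamine RNAiMax in serum-free DMEM, seed HEK293T SMN2–luciferase reporter cells; incubate 72 h at 37 °C; add ONE-Glo; normalize luminescence to control siRNA, log10, MAD. Candidates: |MAD| > 1.0.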

Sequence | median seed-adjusted z-score
GUAAUAUUGUAGAAAAGCATT against SERPINB7 | inactive: 0.584
GCAAUGGAGCUGUGGAGGATT against CD44 | inactive: 0
CAACUGGGAUGAUACUUAUTT against L3MBTL | inactive: 0.0232
GUUUAGACCUAACCCAAUATT against TARBP1 | inactive: 0.491
CUACGUGACUGAGCUAACATT against GBP7 | inactive: 0
CUGCGGACGUGGUUCUGUUTT against UCK1 | inactive: -0.599
CCGUCUCCAUCUGUAAGAATT against ZDHHC16 | inactive: 0.0194
GGCUUCUACUGGUGUCUGATT against PIGR | inactive: -0.35
GGAACACUAUGAUGAGUUUTT against U2AF1 | active: 2.08
GCGGUUUACUAUAGACAAATT against IKBKAP | inactive: -0.0316
CAGAUGAAGUGAUCGGUGATT against CIITA | inactive: -0.109
CCAAGGAGUUCGAACCUAATT against HFE | inactive: -0.677
CCUCUUAUGGUGACUUAAATT against SFRS5 | inactive: 0.346
CAGCAGAGGAUGAACCCAATT against ZFYVE27 | inactive: 0.0439
GGAAGGCAGAUGUAUCUUUTT against CMPK1 | inactive: -0.363
UCCUUGUUGUGGACAGGGATT against SPINK4 | inactive: -0.0134
GGCAAUUGAUAAGAAGGUATT against RAPGEF1 | inactive: 0.304
GCAGUUGAAUUAUCACAGUTT against UQCRFS1 | active: -1.28
GAAACUUAAUAAGCUGAUUTT against DNAJC3 | inactive: 0.502
CCAAGUUUAUAUCAUAUUATT against GNG4 | inactive: -0.188
GCAGAAUUACAUAAACGAATT against KL | inactive: -0.267
CCCUAACUUUGUUCGUUGUTT against MYH10 | inactive: 0.0877

Pulled one by one from the entries so far:
Sequence | median seed-adjusted z-score
GCGGUUUACUAUAGACAAATT against IKBKAP | inactive: -0.0316
GCAAUGGAGCUGUGGAGGATT against CD44 | inactive: 0
GGAACACUAUGAUGAGUUUTT against U2AF1 | active: 2.08
GCAGUUGAAUUAUCACAGUTT against UQCRFS1 | active: -1.28

(further entries)

Sequence | median seed-adjusted z-score
CGCCUGCUACUUUUACGAATT against FZD10 | inactive: -0.226
CUCAUCCAUUCUUACCAAATT against UGT2B10 | inactive: 0.989
GCUCUAUGUAUGCAUUGAATT against ZNF585A | inactive: -0.168
CAUGCUUUGUCCUAGAGAATT against MAGED1 | inactive: 0.524
CAUUUUAGAUGGGCACAAUTT against GOSR2 | active: -1.25
GGACAAGAAUGAGCUCAGUTT against HSF1 | inactive: 0
GCUCUGUUUUCUACGUCUATT against SLC17A7 | inactive: -0.0794
AGUCCUUAAUGACCACCGATT against HDAC7 | inactive: -0.41
CUAUAUCCGCUUCUGUUUUTT against CCBL1 | inactive: -0.0496
CAAACGGACCAAAACAUCUTT against RNF2 | inactive: 0.354
CCAGGUGGGCAAAACUUAATT against VN1R4 | inactive: -0.0601
AGAGUACGUUGGAAAACUUTT against IL4 | inactive: -0.192
GCCGAGUGUUUGUCCAUGATT against CLCA2 | inactive: 0.669
CUGAGAACGUGGAGUUUAATT against SIRPG | inactive: -0.109
CCACAACAGUGUUACGAAUTT against ZEB2 | inactive: 0.854
GGCUAGUUAUAAAGCAGGATT against ZNF621 | inactive: 0
GGGUUAUCCUUGGAUUCAATT against DERL1 | inactive: 0.22
GGAACUUGGUUGUAGAGCUTT against SVIL | inactive: 0.0852
GGAUUACUACUUAAACAGATT against ECE2 | inactive: 0.794
GAAGUAUAUUGGUAUCCGATT against HTRA1 | inactive: 0.031
AGACCACGCAGCUCAUUGATT against SIGLEC1 | inactive: -0.153
GAGUUUAUCAUGCUGGACATT against CHST6 | inactive: 0.372

Sequence | median seed-adjusted z-score
CAACUUCGAUUAUCUUCAATT against DCK | inactive: 0.123
GGUUAUGACAACACCGAAATT against CLASP1 | inactive: 0.0472
UGGUCAAGGUGUUUGAGAATT against SFRS17A | inactive: -0.389
GGCUGUUGGUAACCUGAGATT against TF | inactive: 0.192
AGAUCGUGGUGCAUCCAUATT against ELA1 | inactive: 0.687
GUUGCGACGUGAAUGGGAATT against PCSK5 | inactive: -0.158
CCGUAUCGGCGACAAACUATT against MPP7 | inactive: 0.163
CGAGUAUGGUUUCCGCAAATT against UHMK1 | inactive: -0.269
CGCCGACGGCUUUGUCAAATT against JUNB | inactive: -0.224
GGCUUUGCCGAAGAAAACATT against KDSR | inactive: -0.108
GAAAUACGGUUAUACAUCUTT against SIGLEC6 | inactive: 0.0176
CCAACGAACUCCUUACUUATT against SCP2 | inactive: 0.413
GGUUCCGAAUCUAUUCCAATT against PLTP | active: 1.09
UCACUUGUCUCUAGCCGCATT against ATP5G2 | inactive: 0
GAAGGACCGUGAACCUAUATT against CYP4F11 | inactive: 0.307
CCAAUAUUGUGGAUCCUUUTT against HTR4 | inactive: 0.444
GGUAGCUAGUUGUUUCAGATT against IFT88 | inactive: 0.189
GCCUCUCUCUAGCUCGAUUTT against ZBTB7B | inactive: -0.242
GACCCUGACUGGAAAGUAUTT against MOV10 | inactive: 0.0759
GAAGCAAUCUCAGUGGUUATT against LCOR | inactive: -0.0435
GGAUAUCAGUAUUGACAAATT against ASAP1 | inactive: 0.0592
AACUCUUCAUGGGACGAUUTT against PLA2G4F | inactive: -0.0231

Sequence | median seed-adjusted z-score
GGUCAUCUUUCCGGAUAAATT against RGL4 | inactive: 0.201
CCAGGAUGUUUUUCGAAAUTT against GNPTAB | inactive: 0.296
GCCUGAAAUUUACACGAAUTT against DNTT | inactive: 0.316
GGAAAGCAUUCUGCUCUUUTT against CST3 | inactive: -0.188
GUAUGAUUGAUACUACAAATT against GBP6 | inactive: -0.0703
CAAAAUCCUUUGUGAGUAATT against GPR174 | inactive: -0.324
CCACCCUGCAGAAUCCUGUTT against CALML6 | inactive: 0.0119
AGAUCAUGCCUGAAGCUCATT against PPFIA4 | inactive: 0.0399
GACUAUUUGUUCAAGAUUATT against RAB19 | inactive: -0.0516
CGAGUACCGGGUCAAGAUATT against PLXND1 | inactive: -0.064
GGAGCGGAAUGAACUCAAATT against RILP | inactive: 0.503
AUGGAUAUGUGAAACCACATT against STAT5A | inactive: -0.229
CGGUUGACACGGAUGGAAATT against CALML5 | inactive: -0.175
GAACAUAUGUGAUGACCGUTT against CDH2 | inactive: -0.235
GAAUGGACUGGUACCUAUUTT against ALDOB | active: -1.34
UGACAUCUUUGAGCGCAUCTT against HIST1H2BO | inactive: 0.634
GGAAGUGAAAGGAUCAAGATT against RAD54B | inactive: -0.257
GAAAUUGACUGCUCGAGUATT against SRPX2 | inactive: 0.101
GGAGUGAGAUCGUCGUAUUTT against DZIP1 | inactive: -0.138
CCUUACCACUCUUCGAGUATT against USP33 | inactive: -0.63
GAACAUCGCAUAAUCCUGATT against ORC1L | inactive: -0.536
GUUCGGAACUGAUACGAUUTT against DSG4 | inactive: -0.0211

Sequence | median seed-adjusted z-score
GGUCUAUGCUGCGCUCAUATT against DOCK2 | inactive: 0.151
GGACUUCUUUUGUCAUGCATT against BCKDHB | inactive: 0.366
GGAUUCAAGUUCGAAAUAUTT against ATP5C1 | inactive: -0.0179
GAAAGAGCCUGUUACCUAUTT against ACTR1A | active: 1.28
GGACGUGUCUAUUAUGUUGTT against WWP2 | inactive: -0.685
ACAUGAAGGUGAAUCCUGUTT against COX4I2 | inactive: -0.0202
UGGACAUGCUGAACCCGGATT against ESPN | inactive: 0
GAACCAGAUAUCUUGAAAATT against ZNF251 | inactive: -0.851
CAAUAAGCUUUGCAAUCAATT against SFRS8 | inactive: -0.353
CCUGCGCAGUAACAAUGAATT against SLC9A4 | inactive: 0.693
GGAUUGAGCGCAUCAAGGUTT against GNG7 | inactive: -0.205
GCACAAGCGAGAUCCUCUATT against SLC10A4 | inactive: 0.069
CACGAGCUGCGCUACAGUATT against TSEN34 | inactive: 0.918
GACAAGUCUUAAUCAACUATT against PGR | inactive: -0.0249
CUUCAAUCCUCUAGACUUUTT against PTTG1 | inactive: -0.459
GGUUGGUGGUUUUGGGCUATT against OXCT1 | inactive: 0.133
CAUCGAGUCUGUACCUACATT against GPHB5 | inactive: -0.533
CUGGUGCAGUCAAACCGGATT against HSF1 | inactive: 0
AGUAUGUGCUGAUCCGAGUTT against PHPT1 | active: 1.27
GCCUGUUACAGAUGACAUATT against BRD8 | inactive: -0.133
